Values from PubChem BioAssay AID602196 (INSERM, 2012).

- Assay: 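Modifiers of cisplatin sensitivity in A549 cells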
- Cells: human A549 lung cancer cells
- Reagents: siRNA pair against human genes
- Duration: 48 h transfection before cisplatin; time from cisplatin to read-out not stated
- Conditions: cisplatin at a dose killing half of control-siRNA cells; exact dose and duration not given
- Detection: 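Cisplatin cell death as a shift from the 50% death seen with control siRNA; siRNAs toxic or growth-blocking alone scored 0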
- Scale: two-siRNA summed score (-2 to +2): higher = both siRNAs protect from cisplatin killing; -2 means both sensitise
- Hit rule: 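Each siRNA scores 0 if harmful alone by LDH or WST-1, otherwise +1 if it reduces and -1 if it increases cisplatin killing; a gene is active when both siRNAs agree (sum +2 or -2)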
- Calls: active = both siRNAs shift cisplatin killing the same way; inactive = no consistent shift, or siRNA harmful alone
The whole screen tested about 23,000 reagents; shown is an unselected part. 455 of them (2%) were called active. 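Active includes both protection and sensitisation; some change values fall well beyond the stated -50 to +50 range.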 Not all columns of the deposit are shown. No sequences are given here. Not stated in the record: the amount of reagent.

With DKFZP434M131, what does the deposit list?
two-siRNA summed score (-2 to +2): 1; Call: inactive

With LOC400164, what was measured?
two-siRNA summed score (-2 to +2): -1; Call: inactive

What did the screen give for CUX1 (cut like homeobox 1)?
two-siRNA summed score (-2 to +2): -1; Call: inactive

What is on record for TSPAN9 (tetraspanin 9)?
two-siRNA summed score (-2 to +2): 0; Call: inactive

What is on record for CCDC63 (coiled-coil domain containing 63)?
two-siRNA summed score (-2 to +2): 0; Call: inactive

What did the screen give for HK3 (hexokinase 3)?
two-siRNA summed score (-2 to +2): 1; Call: inactive

What is on record for UGP2 (UDP-glucose pyrophosphorylase 2)?
two-siRNA summed score (-2 to +2): 1; Call: inactive

How did the screen score HNRNPA2B1 (heterogeneous nuclear ribonucleoprotein A2/B1)?
two-siRNA summed score (-2 to +2): 0; Call: inactive

For LY6S-AS1 (LY6S antisense RNA 1), what does the deposit list?
two-siRNA summed score (-2 to +2): 1; Call: inactive

For ATP11AUN (ATP11A upstream neighbor lncRNA), what does the deposit list?
two-siRNA summed score (-2 to +2): 1; Call: inactive

With SCN3A (sodium voltage-gated channel alpha subunit 3), how do the results read?
two-siRNA summed score (-2 to +2): 0; Call: inactive

With RPS6 (ribosomal protein S6), what does the deposit list?
two-siRNA summed score (-2 to +2): 0; Call: inactive
